Assay results from PubChem BioAssay AID493014 (National Center for Advancing Translational Sciences (NCATS), 2011).
This is one part of the list. The main result of the screen is listed elsewhere. These columns were measured beside it and carry no call. Most of these compounds were active or inconclusive in the main read-out, so they are no random draw. The note in brackets gives the kind of curve behind each potency; many fits are weak.

Assay: qHTS Assay to Find Inhibitors of Chronic Active B-Cell Receptor Signaling
Details: ABC-DLBCL IkBa-CBG/CBR reporter, luminescence ratio (green luciferase fused to IkBa over red control in TMD8 lymphoma cells), 4 h
Procedure, shortened: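 Cell line TMD8 (human ABC DLBCL), stably expressing tet-inducible CBG68-IkBa fusion and CBR; IMDM/0.5% FBS; cpd up to 46 uM; dox induction, 4 h, 37C/5% CO2; dual luminescence; green/red ratio; MG132 control.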

[1] = measured here: CBR red luminescence, cell number
[2] = measured here: IkBa-CBG green luminescence

Cc1ccc(C(=O)N2CCCCC2)cc1NC1=C(Cl)C(=O)N(Cc2ccccc2)C1=O
AC50 [1]: 29.1 µM [falling, single point]

O=C(NCCSCc1ccccc1)c1ccccc1
AC50 [1]: 2.91 µM [falling, single point]

CN(CC(=O)Nc1ccccc1C(=O)N1CCCC1)S(=O)(=O)c1ccc(Cl)cc1
AC50 [1]: 0.146 µM [falling, full curve, poor fit]

COC(=O)Cc1ccc(NC(=S)NCC(C)C)cc1
AC50 [1]: 1.46 µM [rising, partial curve, poor fit]

CCCc1cc(=O)[nH]c(SCC(=O)Nc2ccc3c(c2)CCC3)n1
AC50 [1]: 11.2 µM [rising, partial curve, poor fit]

COc1ccc(N2C(=O)CSC23CCC(C(C)(C)C)CC3)cc1 (stereo not drawn)
AC50 [1]: 6.31 µM [falling, single point]

Cn1ccnc1SCC(=O)Nc1cccc(C(F)(F)F)c1
AC50 [1]: 0.82 µM [rising, full curve, poor fit]

CCN1/C(=C/C=C/c2oc3ccc(-c4ccccc4)cc3[n+]2CC)Oc2ccc(-c3ccccc3)cc21
AC50 [1]: 2.82 µM [falling, full curve] | AC50 [2]: 11.2 µM [rising, partial curve, poor fit]

COC(=O)c1c(NC(=O)/C=C/C(=O)O)sc(C)c1-c1ccc(C(C)C)cc1
AC50 [1]: 10 µM [falling, single point]

COc1cccc(/C=N/NC(=O)c2c(C)nc3ccc(Br)cn23)c1O
AC50 [1]: 7.94 µM [falling, partial curve, poor fit]

CCn1c(SCC(=O)NC2CCCCC2)nnc1-c1cc2cccc(OC)c2o1
AC50 [1]: 8.91 µM [falling, single point]

CN(C)c1ccc(/C=C/C(=O)c2ccccc2O)cc1
AC50 [1]: 5.01 µM [falling, full curve]

COc1ccc(-c2cc(C(=O)NCc3cccnc3)no2)cc1OC
AC50 [1]: 10 µM [falling, partial curve]

Cc1ccc(NC(=O)CSc2ncc(S(=O)(=O)c3ccccc3)c(=O)[nH]2)cc1C
AC50 [1]: 18.4 µM [falling, partial curve, poor fit] | AC50 [2]: 23.1 µM [rising, partial curve, poor fit]

Cc1nnc(SCC(=O)NC(=O)Nc2ccc3c(c2)OCCO3)n1N
AC50 [1]: 6.31 µM [falling, full curve]

COc1cc(OC)cc(C(=O)NNC(=O)c2ccccn2)c1
AC50 [1]: 9.2 µM [falling, single point]

COc1cccc(NC(=O)c2ccc(-c3ccc([N+](=O)[O-])cc3)o2)c1
AC50 [1]: 12.6 µM [falling, partial curve, poor fit]

COC(=O)c1sc2nc3c(cc2c1N)CCCC3
AC50 [2]: 0.708 µM [rising, full curve]

O=C(NC(=O)N1CCN(c2ccc(F)cc2)CC1)c1ccccc1
AC50 [1]: 14.6 µM [rising, partial curve, poor fit]

CCCSc1nnc(-c2ccccc2NC(=O)CC)c(=O)[nH]1
AC50 [1]: 5.8 µM [rising, partial curve, poor fit]

O=C(O)/C=C/C(=O)Nc1ccc(OCc2ccccc2)cc1
AC50 [1]: 0.447 µM [falling, full curve, poor fit]

COc1cc(CCC(=O)Nc2ncc(C)s2)cc(OC)c1OC
AC50 [1]: 31.6 µM [falling, single point]

CS(=O)(=O)N(CC(=O)Nc1ccc2c(c1)OCCO2)Cc1ccccc1
AC50 [1]: 5.8 µM [rising, partial curve, poor fit]

O=C(COc1ccccc1)Nc1nnc(-c2ccco2)o1
AC50 [1]: 12.6 µM [falling, partial curve, poor fit]

Oc1cccc(/C=N/NC(=S)Nc2cccnc2)c1O
AC50 [1]: 25.9 µM [falling, single point]

CC(C)(C)C1CCc2c(sc(NC(=O)c3cccs3)c2C(N)=O)C1 (stereo not drawn)
AC50 [1]: 20.6 µM [falling, partial curve, poor fit]

CN(C(=O)CSc1nc2cc(Cl)ccc2c(=O)n1Cc1ccco1)C1CCS(=O)(=O)C1 (stereo not drawn)
AC50 [1]: 20 µM [falling, single point]

Cc1cc2c(Nc3ccc(O)cc3)ncnc2s1
AC50 [1]: 4.47 µM [falling, partial curve, poor fit]

O=C(c1ccc2ccccc2c1)c1c[nH]cc1-c1ccccc1
AC50 [1]: 3.66 µM [rising, partial curve, poor fit]

Cc1ccc(SCC(=O)OCC(=O)N(C)CC(=O)Nc2ccccc2Cl)cc1
AC50 [1]: 23.1 µM [falling, single point]

S=c1oc(-c2ccncc2)nn1CCc1ccncc1
AC50 [1]: 0.82 µM [rising, full curve, poor fit]

CC(=O)Nc1cccc(NC(=O)C(=O)NCC(c2ccco2)N2CCc3ccccc32)c1 (stereo not drawn)
AC50 [1]: 16.4 µM [falling, partial curve, poor fit]

COC(=O)c1[nH]c2ccc(C)cc2c1NC(=O)CN1CCN(Cc2ccccc2)CC1
AC50 [2]: 1.58 µM [falling, full curve, poor fit]

CCOc1ccccc1NC(=O)Cn1c(=O)oc2ccccc21
AC50 [1]: 3.55 µM [falling, single point]

O=C(NNC(=O)c1ccccc1F)c1ccco1
AC50 [1]: 1.41 µM [falling, full curve]

CCN1CCCC1CNC(=O)c1ccc2c(c1)NC(=O)/C(=C\c1ccc(C)cc1)S2 (stereo not drawn)
AC50 [1]: 35.5 µM [falling, single point]

Cc1cc(Sc2nc(N(C)C)nc(N(C)C)n2)nc(Cl)n1
AC50 [1]: 1.58 µM [rising, partial curve, poor fit]

O=C(COC(=O)COc1ccc(Cl)cc1Br)NCCC1=CCCCC1
AC50 [1]: 29.1 µM [rising, single point]

COc1ccc(S(=O)(=O)NCCN2CCOCC2)c2ccccc12
AC50 [1]: 35.5 µM [rising, single point]

CC(=O)Oc1c(I)cc(I)cc1C(=O)Nc1ccc(Cl)cc1
AC50 [1]: 3.16 µM [falling, full curve]

Cc1ccc(NC(=O)CC(C)N2CCCC2)cc1 (stereo not drawn)
AC50 [1]: 6.51 µM [rising, partial curve]

CCNc1nc2c(c(=O)n(C)c(=O)n2C)n1Cc1ccc(F)cc1
AC50 [1]: 3.98 µM [falling, partial curve, poor fit] | AC50 [2]: 4.47 µM [rising, full curve]

Cc1c(CCC(=O)O)c(=O)oc2cc3oc4c(c3cc12)CCCC4
AC50 [1]: 1.41 µM [rising, full curve, poor fit] | AC50 [2]: 2 µM [falling, full curve]

Cc1ccccc1OCCCC(=O)Nc1ccc(Br)cc1
AC50 [1]: 20.6 µM [rising, partial curve, poor fit]

COc1ccc(/C=N/NC(=O)c2ccc(CN3c4cccc5cccc(c45)S3(=O)=O)cc2)cc1
AC50 [1]: 29.1 µM [rising, partial curve, poor fit]

COc1ccc(-c2cc(C(=O)NCc3ccco3)no2)cc1OC
AC50 [1]: 0.0058 µM [rising, full curve, poor fit] | AC50 [2]: 0.0058 µM [falling, full curve, poor fit]

Clc1ccc2nc(-c3ccccc3)cn2c1
AC50 [1]: 11.2 µM [falling, single point]

COC(=O)Nc1nc2ccc(SC(C)C)cc2[nH]1
AC50 [2]: 7.31 µM [falling, partial curve, poor fit]

Cc1ccc(NS(=O)(=O)c2ccc3c(c2)n(C)c(=O)n3C)c(C)c1
AC50 [1]: 5.62 µM [rising, single point]

COc1cc2c(cc1OC)CN(CC(=O)Nc1ccc(C#N)cc1)CC2
AC50 [1]: 7.31 µM [falling, single point]

O=C(COc1cc(F)ccc1[N+](=O)[O-])Nc1ccc2c(c1)OCO2
AC50 [1]: 29.1 µM [rising, partial curve, poor fit]

COc1cc2ccccc2cc1C(=O)Nc1nc(C)c(C(C)=O)s1
AC50 [1]: 3.55 µM [falling, full curve]

CCc1ccc(C(=O)Cn2ccsc2=N)cc1
AC50 [1]: 0.355 µM [rising, full curve, poor fit]

Cc1cc(/C=c2\sc3nc4ccccc4n3c2=O)c(C)n1-c1ccc(C(=O)O)cc1
AC50 [2]: 1 µM [rising, full curve, poor fit]

c1cc2ccc3ccc(-n4cnnn4)c4ccc(c1)c2c34
AC50 [1]: 20.6 µM [rising, single point]

Cc1cccc(-n2ccnc2CN2CCN(C3CCCC3)C(CCO)C2)c1 (stereo not drawn)
AC50 [1]: 31.6 µM [rising, single point]

O=C(COC(=O)c1cc(=O)[nH]c2ccccc12)NC1CCCCCCC1
AC50 [1]: 35.5 µM [rising, single point]

COc1ccc(C)cc1NC(=O)CSc1nc(=O)n(Cc2ccco2)c2c1CCC2
AC50 [1]: 15.8 µM [falling, single point]

COc1ccccc1NCC(=O)NC(=O)NC1CCCCC1
AC50 [1]: 7.31 µM [rising, partial curve, poor fit]

CC1=CC(C)(C)Nc2ccc(OC(=O)C(C)N3C(=O)c4ccccc4C3=O)cc21 (stereo not drawn)
AC50 [1]: 11.6 µM [falling, partial curve, poor fit]

Cc1cc(C(=O)Nc2ccc(N3CCOCC3)c3nonc23)ccc1[N+](=O)[O-]
AC50 [1]: 1 µM [rising, full curve]

O=C(Cn1cnc2c(nnn2Cc2ccccc2F)c1=O)NCC1CCCO1 (stereo not drawn)
AC50 [1]: 29.1 µM [rising, single point]

COc1ccccc1C1=Nn2c(COc3ccccc3)nnc2SC1
AC50 [1]: 12.6 µM [falling, single point]
